One sequence from PMC4348373 can be followed below.

Amino acid sequences for entries named in this document (tags omitted).
UniProt P25490, whole entry: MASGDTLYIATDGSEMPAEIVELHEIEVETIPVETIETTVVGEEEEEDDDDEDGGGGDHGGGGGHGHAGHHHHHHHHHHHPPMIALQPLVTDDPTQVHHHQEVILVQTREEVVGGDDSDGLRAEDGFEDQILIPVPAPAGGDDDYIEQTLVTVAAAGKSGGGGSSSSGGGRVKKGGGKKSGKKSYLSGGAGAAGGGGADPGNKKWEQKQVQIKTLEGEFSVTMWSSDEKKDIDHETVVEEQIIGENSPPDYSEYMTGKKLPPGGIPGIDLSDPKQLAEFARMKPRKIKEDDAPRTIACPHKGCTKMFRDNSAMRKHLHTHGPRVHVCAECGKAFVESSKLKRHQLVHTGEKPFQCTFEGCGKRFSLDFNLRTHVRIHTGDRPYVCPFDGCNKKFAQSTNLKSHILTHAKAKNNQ

In the data set the target is YY1 (HeLa nuclear extract) (human (HeLa)) (UniProt P25490). In words: pull-down + MS. The settings on record: Pull-down: 25 mM Tris, 150 mM NaCl, pH 7.2, room temperature, 30 min, protein in an extract, label: 5'-biotin.

Construct, isoform or probe ends are uncertain for at least one entry. Results from cells or extracts need not show a direct contact. At least one verdict was read from the data and is not stated in words by the source.

In the case of “CGTCTGGAACTCCCCTCAACGCTCTCACCATTTTGCCCCGCGAAGGCTAATCCGCCGCT (double strand) [Probe P (Probe b)]”, the binding result is on record as “binds”.
